From publication PMC7862700
The list shows a part of the results, in another mix than the full data. For part of these data: At the low end of the ranking the order means little. The list shows a part of the results. For part of these data: The exact form of the protein is not confirmed.

Protein sequences, listed by entry. Tags and fused reporters are not part of them. Lines headed by an entry give the natural chain unless they say otherwise; changes in a name come on top.
UniProt Q00613: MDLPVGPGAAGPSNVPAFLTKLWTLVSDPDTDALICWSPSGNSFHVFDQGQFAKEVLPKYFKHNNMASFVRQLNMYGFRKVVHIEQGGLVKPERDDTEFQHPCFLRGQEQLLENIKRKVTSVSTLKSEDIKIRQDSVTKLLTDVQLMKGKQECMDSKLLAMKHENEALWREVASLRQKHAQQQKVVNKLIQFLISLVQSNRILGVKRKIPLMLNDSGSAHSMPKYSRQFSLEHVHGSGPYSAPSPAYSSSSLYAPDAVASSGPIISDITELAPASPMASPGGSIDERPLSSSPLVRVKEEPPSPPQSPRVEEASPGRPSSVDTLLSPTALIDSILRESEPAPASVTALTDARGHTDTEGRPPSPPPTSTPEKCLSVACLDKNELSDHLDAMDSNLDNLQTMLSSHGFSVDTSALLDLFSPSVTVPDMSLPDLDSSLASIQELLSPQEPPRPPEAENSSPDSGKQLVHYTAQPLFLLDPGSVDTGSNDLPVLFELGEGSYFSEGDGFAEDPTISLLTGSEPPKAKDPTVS

Tests used:
HSF1 = HSF1 (UniProt Q00613); experiment: DAPPL (digital affinity profiling via proximity ligation, sequencing); conditions: 10 mM Tris-HCl pH 7.5, 50 mM NaCl, 1 mM DTT, 4% glycerol, room temperature, 30 min; GST-TFs on glutathione beads, 16-mer random dsDNA library, 0.1% …; high values mean tight binding; double strand, one strand shown; scale: fold enrichment (6-mer frequency, TF over GST control)
ELF2 = target: T1, ELF2 (UniProt Q15723); experiment: as above; conditions: 10 mM Tris-HCl pH 7.5, 50 mM NaCl, 1 mM DTT, 4% glycerol, room temperature, 30 min; GST-TFs on glutathione beads, 16-mer random dsDNA library, 0.1% …; high values mean tight binding; double strand, one strand shown; scale: fold enrichment (6-mer frequency, TF over GST control)
T1 sequence: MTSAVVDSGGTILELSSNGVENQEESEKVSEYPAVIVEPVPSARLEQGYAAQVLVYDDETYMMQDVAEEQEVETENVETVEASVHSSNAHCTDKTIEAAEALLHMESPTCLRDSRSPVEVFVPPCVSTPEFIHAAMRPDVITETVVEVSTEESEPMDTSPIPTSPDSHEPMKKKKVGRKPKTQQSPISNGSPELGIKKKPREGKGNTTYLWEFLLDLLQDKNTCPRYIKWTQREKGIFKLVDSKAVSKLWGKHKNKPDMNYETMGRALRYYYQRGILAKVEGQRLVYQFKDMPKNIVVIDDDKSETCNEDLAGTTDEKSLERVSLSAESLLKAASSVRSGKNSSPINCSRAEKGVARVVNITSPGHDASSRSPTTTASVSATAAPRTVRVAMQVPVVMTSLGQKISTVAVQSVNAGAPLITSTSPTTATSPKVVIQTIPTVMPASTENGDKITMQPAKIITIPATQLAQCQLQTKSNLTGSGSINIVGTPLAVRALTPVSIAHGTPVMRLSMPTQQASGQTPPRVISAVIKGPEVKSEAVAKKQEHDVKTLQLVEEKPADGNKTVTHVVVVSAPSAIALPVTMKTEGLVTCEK

Sequence: TGGCTA
- binding signal (HSF1): 1.25
- binding signal (ELF2): 1.16

Sequence: TCTCGC
- binding signal (HSF1): 2.5
- binding signal (ELF2): 1.65

Sequence: CGCCCG
- binding signal (HSF1): 0.986
- binding signal (ELF2): 1.13

Sequence: TGCGCG
- binding signal (HSF1): 1.15
- binding signal (ELF2): 1.04

Sequence: ACTAAA
- binding signal (HSF1): 1.37
- binding signal (ELF2): 1.26

Sequence: CCGCAC
- binding signal (HSF1): 1.13
- binding signal (ELF2): 1.56

Sequence: TAGTCC
- binding signal (HSF1): 1.21
- binding signal (ELF2): 1.07

Sequence: GCGCTC
- binding signal (HSF1): 0.982
- binding signal (ELF2): 1.09

Sequence: GCTGTA
- binding signal (HSF1): 1
- binding signal (ELF2): 1.11

Sequence: TCCAAT
- binding signal (HSF1): 1.23
- binding signal (ELF2): 1.13

Sequence: TAGCAC
- binding signal (HSF1): 1.24
- binding signal (ELF2): 1.1

Sequence: TGGTAG
- binding signal (HSF1): 1.06
- binding signal (ELF2): 0.975

Sequence: CCCACA
- binding signal (HSF1): 0.872
- binding signal (ELF2): 1.09

Sequence: TCGTTC
- binding signal (HSF1): 1.39
- binding signal (ELF2): 1.26

Sequence: GATATC
- binding signal (HSF1): 0.924
- binding signal (ELF2): 1.85

Sequence: ACTAAC
- binding signal (HSF1): 1.08
- binding signal (ELF2): 1.24

Sequence: GTCCCT
- binding signal (HSF1): 0.949
- binding signal (ELF2): 1.17

Sequence: GTTACG
- binding signal (HSF1): 0.795
- binding signal (ELF2): 0.974

Sequence: AATGCT
- binding signal (HSF1): 1.29
- binding signal (ELF2): 1.16

Sequence: AATTAG
- binding signal (HSF1): 1.39
- binding signal (ELF2): 1.14

Sequence: ACCGGA
- binding signal (HSF1): 0.934
- binding signal (ELF2): 4.42

Sequence: TTTTAC
- binding signal (HSF1): 1.37
- binding signal (ELF2): 1.38

Sequence: GGAATT
- binding signal (HSF1): 1.45
- binding signal (ELF2): 1.35

Sequence: ATGCAT
- binding signal (HSF1): 1
- binding signal (ELF2): 1.19

Sequence: CCCTGG
- binding signal (HSF1): 1.11
- binding signal (ELF2): 1.09

Sequence: AAAGCG
- binding signal (HSF1): 0.989
- binding signal (ELF2): 1.08

Sequence: TCTTGC
- binding signal (HSF1): 1.2
- binding signal (ELF2): 1.26

Sequence: GGCTAG
- binding signal (HSF1): 1.18
- binding signal (ELF2): 1.08

Sequence: TCATGC
- binding signal (HSF1): 0.983
- binding signal (ELF2): 1.11

Sequence: ACCCCG
- binding signal (HSF1): 0.968
- binding signal (ELF2): 1.32

Sequence: GTCTTT
- binding signal (HSF1): 1.22
- binding signal (ELF2): 1.19

Sequence: ATCAGC
- binding signal (HSF1): 1.01
- binding signal (ELF2): 0.924

Sequence: AAGATA
- binding signal (HSF1): 1.33
- binding signal (ELF2): 1.16

Sequence: CACTTA
- binding signal (HSF1): 1.26
- binding signal (ELF2): 1.2

Sequence: CCTACG
- binding signal (HSF1): 1.21
- binding signal (ELF2): 1.39

Sequence: CCGCCC
- binding signal (HSF1): 0.932
- binding signal (ELF2): 1.26

Sequence: TCCACA
- binding signal (HSF1): 1.36
- binding signal (ELF2): 1.2

Sequence: TACCCA
- binding signal (HSF1): 0.981
- binding signal (ELF2): 1.04

Sequence: ACCAAT
- binding signal (HSF1): 1.16
- binding signal (ELF2): 1.27

Sequence: TTGACC
- binding signal (HSF1): 1.16
- binding signal (ELF2): 1.39

Sequence: CTCTGA
- binding signal (HSF1): 1.06
- binding signal (ELF2): 1.09

Sequence: AAAAGC
- binding signal (HSF1): 1.3
- binding signal (ELF2): 1.23

Sequence: TAGCGG
- binding signal (HSF1): 0.99
- binding signal (ELF2): 1.13

Sequence: ACATCA
- binding signal (HSF1): 0.911
- binding signal (ELF2): 1.1

Sequence: TGGCAG
- binding signal (HSF1): 0.98
- binding signal (ELF2): 1.04

Sequence: CCATTC
- binding signal (HSF1): 1.15
- binding signal (ELF2): 1.05

Sequence: CCCATT
- binding signal (HSF1): 1.15
- binding signal (ELF2): 1.28

Sequence: CCCATG
- binding signal (HSF1): 0.858
- binding signal (ELF2): 0.995

Sequence: CTAATC
- binding signal (HSF1): 3.22
- binding signal (ELF2): 1.24

Sequence: ACCCTA
- binding signal (HSF1): 1.18
- binding signal (ELF2): 1.22

Sequence: TCCCAA
- binding signal (HSF1): 1.11
- binding signal (ELF2): 1.19

Sequence: CCCCCG
- binding signal (HSF1): 0.884
- binding signal (ELF2): 1.08

Sequence: CGACCG
- binding signal (HSF1): 0.898
- binding signal (ELF2): 1.19

Sequence: ACTTTG
- binding signal (HSF1): 1.14
- binding signal (ELF2): 1.15

Sequence: TAGTAA
- binding signal (HSF1): 1.54
- binding signal (ELF2): 1.03

Sequence: AGATCC
- binding signal (HSF1): 1.11
- binding signal (ELF2): 1.15

Sequence: CCTACA
- binding signal (HSF1): 1.07
- binding signal (ELF2): 1.2

Sequence: ACTCTA
- binding signal (HSF1): 1.63
- binding signal (ELF2): 1.38

Sequence: CTTTTG
- binding signal (HSF1): 1.36
- binding signal (ELF2): 1.35

Sequence: CAATCA
- binding signal (HSF1): 0.987
- binding signal (ELF2): 1.05

Sequence: TTAACC
- binding signal (HSF1): 1.8
- binding signal (ELF2): 1.3

Sequence: GTTGCA
- binding signal (HSF1): 0.84
- binding signal (ELF2): 1.14

Sequence: ATGCGG
- binding signal (HSF1): 0.822
- binding signal (ELF2): 1.53

Sequence: TTGCGG
- binding signal (HSF1): 1.04
- binding signal (ELF2): 1.51

Sequence: ACCAAC
- binding signal (HSF1): 0.957
- binding signal (ELF2): 1.23

Sequence: CTGCCT
- binding signal (HSF1): 1.13
- binding signal (ELF2): 1.2

Sequence: TGCACG
- binding signal (HSF1): 0.972
- binding signal (ELF2): 1.02

Sequence: CATCCG
- binding signal (HSF1): 0.928
- binding signal (ELF2): 2.55

Sequence: ACTTTC
- binding signal (HSF1): 2.49
- binding signal (ELF2): 1.57

Sequence: CTCCTG
- binding signal (HSF1): 1.52
- binding signal (ELF2): 1.5

Sequence: TATTCC
- binding signal (HSF1): 2.11
- binding signal (ELF2): 1.82

Sequence: CTCTGC
- binding signal (HSF1): 1.25
- binding signal (ELF2): 1.39

Sequence: CTCTGG
- binding signal (HSF1): 1.81
- binding signal (ELF2): 1.23

Sequence: TCTTAG
- binding signal (HSF1): 1.5
- binding signal (ELF2): 1.15

Sequence: GCTACC
- binding signal (HSF1): 0.955
- binding signal (ELF2): 1.26

Sequence: CCGATC
- binding signal (HSF1): 1.23
- binding signal (ELF2): 1.18

Sequence: TCATTT
- binding signal (HSF1): 1.14
- binding signal (ELF2): 1.41

Sequence: TGCCTG
- binding signal (HSF1): 1.05
- binding signal (ELF2): 1.14

Sequence: CGCTTT
- binding signal (HSF1): 1.11
- binding signal (ELF2): 1.19

Sequence: TCGCTA
- binding signal (HSF1): 1.15
- binding signal (ELF2): 0.977

Sequence: CAACCA
- binding signal (HSF1): 0.901
- binding signal (ELF2): 1.07

Sequence: ACGGCC
- binding signal (HSF1): 0.81
- binding signal (ELF2): 0.975

Sequence: TGCGTA
- binding signal (HSF1): 1.06
- binding signal (ELF2): 1.05

Sequence: GTCACA
- binding signal (HSF1): 0.821
- binding signal (ELF2): 1.05

Sequence: ACATAC
- binding signal (HSF1): 1.07
- binding signal (ELF2): 1.15

Sequence: GTTTGG
- binding signal (HSF1): 0.896
- binding signal (ELF2): 1.03

Sequence: TAACCC
- binding signal (HSF1): 1.3
- binding signal (ELF2): 1.31

Sequence: TATGGA
- binding signal (HSF1): 1.33
- binding signal (ELF2): 1.1

Sequence: GAAAAG
- binding signal (HSF1): 1.22
- binding signal (ELF2): 1.08

Sequence: CTTCGC
- binding signal (HSF1): 1.63
- binding signal (ELF2): 1.34

Sequence: GTCTCA
- binding signal (HSF1): 1.01
- binding signal (ELF2): 1.25

Sequence: GATACG
- binding signal (HSF1): 0.856
- binding signal (ELF2): 1.15

Sequence: CTAGTT
- binding signal (HSF1): 1.51
- binding signal (ELF2): 1.34

Sequence: TTATTT
- binding signal (HSF1): 1.64
- binding signal (ELF2): 1.49

Sequence: AAAAAG
- binding signal (HSF1): 1.34
- binding signal (ELF2): 1.2

Sequence: CCGATG
- binding signal (HSF1): 0.99
- binding signal (ELF2): 1.02

Sequence: ATATGT
- binding signal (HSF1): 0.984
- binding signal (ELF2): 1.14

Sequence: GCACCC
- binding signal (HSF1): 0.855
- binding signal (ELF2): 1.16

Sequence: ATCATT
- binding signal (HSF1): 1.18
- binding signal (ELF2): 1

Sequence: TTCAGT
- binding signal (HSF1): 0.946
- binding signal (ELF2): 1

Sequence: ATTGCT
- binding signal (HSF1): 1.14
- binding signal (ELF2): 1.17

Sequence: GACCTG
- binding signal (HSF1): 1.01
- binding signal (ELF2): 1.15

Sequence: CACGCC
- binding signal (HSF1): 0.938
- binding signal (ELF2): 1.16

Sequence: TCTCAC
- binding signal (HSF1): 1.3
- binding signal (ELF2): 1.23

Sequence: TTCCTT
- binding signal (HSF1): 1.61
- binding signal (ELF2): 2.39

Sequence: ACCACC
- binding signal (HSF1): 0.891
- binding signal (ELF2): 1.04

Sequence: TGCTGT
- binding signal (HSF1): 0.836
- binding signal (ELF2): 1.02

Sequence: TCCCTC
- binding signal (HSF1): 1.38
- binding signal (ELF2): 1.41

Sequence: CCGCGT
- binding signal (HSF1): 0.842
- binding signal (ELF2): 1.22

Sequence: CAGAAT
- binding signal (HSF1): 2.05
- binding signal (ELF2): 0.98

Sequence: CGCCCT
- binding signal (HSF1): 1.13
- binding signal (ELF2): 1.35

Sequence: TGAAAC
- binding signal (HSF1): 1.13
- binding signal (ELF2): 1.23

Sequence: CGTCTA
- binding signal (HSF1): 1.52
- binding signal (ELF2): 1.22

Sequence: CTAGCT
- binding signal (HSF1): 1.53
- binding signal (ELF2): 1.23
